# These are yes or no findings as the source states them, for the method shown. Binding seen in cells or lysates may run through a third protein. Some results given as binding are weak or reduced against the parent protein; the word gives no strength.
# Sequences of proteins named here, by UniProt entry; tags and fusion partners are left off. A change or cut given only in a name is not applied to a line headed by its entry. Residues count along the entry.
# UniProt P63010: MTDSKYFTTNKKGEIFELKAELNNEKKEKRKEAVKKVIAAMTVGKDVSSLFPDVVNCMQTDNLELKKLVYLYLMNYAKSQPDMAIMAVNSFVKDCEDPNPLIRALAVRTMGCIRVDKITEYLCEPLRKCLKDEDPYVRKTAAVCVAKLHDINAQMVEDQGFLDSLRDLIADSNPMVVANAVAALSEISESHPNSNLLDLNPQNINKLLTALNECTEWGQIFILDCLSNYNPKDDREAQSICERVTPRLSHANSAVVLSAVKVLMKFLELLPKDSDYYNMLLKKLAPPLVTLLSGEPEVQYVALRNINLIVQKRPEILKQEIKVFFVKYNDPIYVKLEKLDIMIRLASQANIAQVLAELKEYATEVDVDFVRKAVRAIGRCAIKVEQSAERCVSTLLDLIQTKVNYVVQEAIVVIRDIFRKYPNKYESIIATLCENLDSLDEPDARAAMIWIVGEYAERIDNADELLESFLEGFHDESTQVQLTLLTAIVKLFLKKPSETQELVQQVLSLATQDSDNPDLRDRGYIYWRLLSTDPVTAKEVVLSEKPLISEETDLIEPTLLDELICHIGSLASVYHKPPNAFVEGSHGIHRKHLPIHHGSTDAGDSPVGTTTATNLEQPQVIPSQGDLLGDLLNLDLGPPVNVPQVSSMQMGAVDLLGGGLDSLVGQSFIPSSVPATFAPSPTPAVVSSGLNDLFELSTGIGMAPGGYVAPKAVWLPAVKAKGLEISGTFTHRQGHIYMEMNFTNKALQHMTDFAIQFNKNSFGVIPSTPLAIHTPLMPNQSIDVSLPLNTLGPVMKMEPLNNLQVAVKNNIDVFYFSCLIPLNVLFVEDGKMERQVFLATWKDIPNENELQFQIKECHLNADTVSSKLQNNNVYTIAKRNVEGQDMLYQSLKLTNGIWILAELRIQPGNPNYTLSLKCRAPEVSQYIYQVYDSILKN
# GST-β2-adaptin(592–937): residues 592-937 of P63010
# UniProt P49407: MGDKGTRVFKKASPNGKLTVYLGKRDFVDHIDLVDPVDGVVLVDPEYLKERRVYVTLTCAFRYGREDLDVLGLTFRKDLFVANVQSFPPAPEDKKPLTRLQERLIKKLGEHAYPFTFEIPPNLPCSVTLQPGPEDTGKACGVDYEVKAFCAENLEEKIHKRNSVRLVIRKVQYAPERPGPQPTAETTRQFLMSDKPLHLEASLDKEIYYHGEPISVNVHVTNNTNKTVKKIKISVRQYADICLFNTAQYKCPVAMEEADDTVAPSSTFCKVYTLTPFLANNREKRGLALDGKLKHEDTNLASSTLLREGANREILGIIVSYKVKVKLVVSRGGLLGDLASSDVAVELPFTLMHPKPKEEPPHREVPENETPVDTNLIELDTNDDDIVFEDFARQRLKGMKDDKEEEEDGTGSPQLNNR
# UniProt P32121: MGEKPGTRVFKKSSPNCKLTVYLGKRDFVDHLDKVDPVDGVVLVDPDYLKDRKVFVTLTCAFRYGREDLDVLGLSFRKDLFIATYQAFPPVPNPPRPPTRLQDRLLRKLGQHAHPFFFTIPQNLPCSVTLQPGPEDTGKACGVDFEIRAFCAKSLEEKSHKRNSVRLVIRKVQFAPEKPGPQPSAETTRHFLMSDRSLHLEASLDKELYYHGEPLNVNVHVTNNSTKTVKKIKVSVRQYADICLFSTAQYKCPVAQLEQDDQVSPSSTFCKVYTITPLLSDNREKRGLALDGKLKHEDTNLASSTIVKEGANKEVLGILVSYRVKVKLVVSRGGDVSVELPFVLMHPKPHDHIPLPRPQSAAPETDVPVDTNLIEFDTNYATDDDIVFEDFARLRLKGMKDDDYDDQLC
# How the values were obtained:
# [1] = target: GST-β2-adaptin(592–937) (human) (UniProt P63010); test: pull-down; 7 μg GST-β2-adaptin(592–937) on glutathione-sepharose beads, pre-incubated with DMSO or Barbadin, then lysate of HEK293T cells transfected with Flag-β-arrestin1, 2 h at 4 °C; blots with anti-Flag and anti-clathrin heavy chain; only the target purified
# [2] = target: endogenous β2-adaptin (AP2 complexes) (human (endogenous in HEK293SL)) (UniProt P63010); test: co-IP; HEK293SL cells expressing V2R and Flag-β-arrestin2; DMSO or Barbadin (50 μM) 20 min, AVP (1 μM) 2.5 or 5 min; cross-linked with DSP (2 mM); RIPA lysate; IP with anti-AP1/2 antibody, blots with anti-Flag, anti-epsin, anti-adaptin
# β2-adaptin-YFP (human) = β2-adaptin-YFP (human) (UniProt P63010); test: FRET or BRET; living HEK293T cells stably expressing β2-adaptin-YFP, transfected with β-arrestin1-RlucII or β-arrestin2-RlucII and V2R, β2AR or AT1R; agonist (AVP 100 nM, ISO 10 μM or AngII 100 nM) at room temperature; pre-incubation with DMSO or compounds (Barbadin 100 μM); Tyrode's buffer
binding (β2-adaptin-YFP (human)),Substance,also measured
,Flag-β-arrestin1 (from UniProt P49407 1-418),binding [1]: binds
,Flag-β-arrestin2 (from UniProt P32121 1-409),binding [2]: binds
binds,β-arrestin1-RlucII (from UniProt P49407 1-418),
binds,β-arrestin2-RlucII (from UniProt P32121 1-409),

# Source: PMC5399295 (Nature Communications, 2017)
